What is called AC50 is the midpoint of the concentration-response curve, whichever way the signal moves. A lower AC50 goes with greater potency.

The assay in a line: qHTS Assay for Lipid Storage Modulators in Drosophila S3 Cells.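 As to cell number change: cells counted by Cell Tracker Red CMTPX staining in the red channel.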 The conditions noted are these: BODIPY lipid droplet fluorescence, 18-24 h; for cell number change: measured here: cell count max response, cells fed with added oleic acid. The gist of the method: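 Drosophila S3 cells got compounds at several concentrations plus oleic acid (400 uM solution). Laser-scanning cytometry with 488 nm excitation read lipid droplets at 500-530 nm and cells at 575-640 nm. Percent activity was relative to 20 uM Triacsin C.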

The mark [1] stands for this setting: measured here: cell number channel AC50, cells fed with added oleic acid.
Setting [2] is: measured here: lipid fluorescence (Fed channel) AC50, cells fed with added oleic acid.

The structures appear in SMILES notation. The list shows a part of the results. Further columns of the screen follow, without active or inactive calls. Compounds called inactive in the main read-out are mostly missing here. The note in brackets gives the kind of curve behind each potency; many fits are weak.

As for `COc1ccc(-c2cc3ccccc3n2CC(O)CN2CCCCC2)cc1` (configuration not stated), the cell number change is -19.3%. In addition, under setting [1], the AC50 was 0.00411 µM [falling, full curve, poor fit]. Further, the AC50 under setting [2] is 0.82 µM [falling, full curve, poor fit].

Turning to `CC(NC(=O)Nc1ccccc1C(F)(F)F)C1CCCO1` (configuration not stated), the cell number change was -180%. In addition, the AC50 under setting [1] is 29.1 µM [falling, single point].

Take `COc1ccc(C2=NOC(C(=O)N3CCN(c4ccccc4OC)CC3)C2)cc1` (configuration not stated): the cell number change was found to be 11.8%.

`COC(=O)Cn1c(=NC(=O)c2sc3ccccc3c2Cl)sc2cc(S(N)(=O)=O)ccc21`: the cell number change is -22.9%. For the same molecule, under setting [2], the AC50 was 0.092 µM [rising, full curve, poor fit].

As to `CCCn1c(=O)c(C(=O)NNC(=O)c2ccc(Cl)cc2Cl)c(O)c2ccccc21`, the cell number change came to 4.2%. In addition, the AC50 under setting [2] was 29.1 µM [falling, single point].

`Cc1cc(=O)n2nc(N3CCCC(C(=O)N4CCc5ccccc54)C3)sc2n1` (configuration not stated): the cell number change worked out at 105%. Under setting [1], the AC50 is 18.4 µM [rising, partial curve].

As to `Cc1ccnc(NC(=O)c2c(O)c3ccccc3n(C)c2=O)c1`, the cell number change was 8.35%. Besides, the AC50 under setting [1] was 5.8 µM [falling, single point].

For `COc1ccc(C2C3=C(N=C4SCC(=O)N42)c2ccccc2CC3)cc1OC` (configuration not stated), the cell number change amounted to 5.51%. Further, under setting [2], the concentration at half-maximal activity (AC50) was 0.411 µM [rising, full curve, poor fit].

Regarding `CC(OC(=O)CC1CCCCC1)C(=O)Nc1ccc(S(N)(=O)=O)cc1` (configuration not stated), the cell number change was -36.5%. Also, the half-maximal activity concentration (AC50) under setting [1] was 14.6 µM [falling, partial curve, poor fit]. Besides, under setting [2], the AC50 was 29.1 µM [falling, single point].

In the case of `COc1ccc(-c2nc(N)ncc2Oc2ccccc2Br)c(O)c1`, the cell number change was -34.3%. Besides, the half-maximal activity concentration (AC50) under setting [1] is 16.4 µM [falling, single point]. In addition, the AC50 under setting [2] is 0.92 µM [rising, partial curve, poor fit].

Regarding `COc1ccc(-c2csc(N(CC3CCCO3)C(=O)c3ccc(C)cc3)n2)cc1` (configuration not stated), the cell number change is -25%. Moreover, the AC50 under setting [2] was 20.6 µM [falling, single point].

As to `Cc1noc(C)c1CCC(=O)N1CCCC(N2CCN(c3ccc(F)cc3)CC2)C1` (configuration not stated), the cell number change was determined as 16.1%.

Turning to `Cc1[nH]n(-c2ccccc2)c(=O)c1C(C[N+](=O)[O-])c1ccccc1Cl` (configuration not stated), the cell number change was -3.02%.

Regarding `CCOC(=O)/C=C1\CN(Cc2ccc(OC)cc2)S(=O)(=O)c2ccccc21`, the cell number change was 3.89%. Besides, the AC50 under setting [2] was 2.06 µM [rising, partial curve].

As for `CCn1cc(C(=O)O)c(=O)c2cc(F)c(N3CCN(C(=S)NC(=O)c4ccc(F)cc4)CC3)cc21`, the cell number change was -10.8%.

Consider `N#Cc1c(Cl)nc(N/N=C/c2ccccc2)c(Cl)c1Cl`, for which the cell number change is -1.27%. For the same molecule, the AC50 under setting [2] was 16.4 µM [falling, single point].

On to `O=C(NC1CCCCC1)C1CCCN1S(=O)(=O)c1ccc(F)cc1` (configuration not stated), for which the cell number change came to 20.2%.

Take `COC(=O)c1cc(COC(=O)c2nc3nccc(C)n3n2)oc1C`: the cell number change is -2.39%.

With `c1cc(SSc2ccncc2)ccn1`, the cell number change is -38.9%. Moreover, the AC50 under setting [1] was 29.1 µM [falling, single point]. The half-maximal activity concentration (AC50) under setting [2] was 29.1 µM [falling, single point].

In the case of `CN(C)c1ccc(/C=N/n2c(COc3ccccc3)n[nH]c2=S)cc1`, the cell number change came out at 15.4%. Also, under setting [2], the half-maximal activity concentration (AC50) was 3.26 µM [rising, partial curve, poor fit].

For `O=c1[nH]c(C2CCCN(S(=O)(=O)Cc3ccccc3)C2)nc2c1nnn2Cc1cccc(Cl)c1` (configuration not stated), the cell number change amounted to 138%. In addition, the AC50 under setting [1] is 16.4 µM [rising, single point].

In the case of `Cc1ccc(N2C(=O)CC(Sc3ccccc3C(=O)O)C2=O)cc1C` (configuration not stated), the cell number change turned out to be 16.1%.

In the case of `O=C(NCC1CCCN1S(=O)(=O)c1cccs1)c1c(F)cccc1F` (configuration not stated), the cell number change worked out at 20.5%.

Consider `O=C(Cn1cnc2c(cnn2-c2ccc(F)cc2)c1=O)N1CCCc2ccccc21`, for which the cell number change was -14.2%. Moreover, the AC50 under setting [2] was 29.1 µM [falling, single point].

In the case of `COc1ccc(/C(N)=N/OC(=O)CCCc2ccccc2)cc1`, the cell number change is -57.3%. In addition, under setting [1], the AC50 is 1.3 µM [falling, full curve]. In addition, the AC50 under setting [2] was 18.4 µM [rising, single point].

As for `COc1ccc(NC(=O)Nc2ccccc2C)c(OC)c1`, the cell number change turned out to be 31.4%. In addition, under setting [1], the concentration at half-maximal activity (AC50) was 0.82 µM [rising, full curve, poor fit].

Turning to `CCOc1ccc(C(=O)NCC(=O)NNC(=O)CN(C)S(=O)(=O)c2ccc(Cl)cc2)cc1`, the cell number change worked out at 187%. Further, the half-maximal activity concentration (AC50) under setting [1] was 23.1 µM [rising, single point].

In the case of `Cc1ccc(-c2csc3n[nH]c(=S)n23)cc1`, the cell number change was -67%. For the same molecule, the half-maximal activity concentration (AC50) under setting [1] is 32.6 µM [falling, partial curve]. Further, the half-maximal activity concentration (AC50) under setting [2] is 0.103 µM [falling, full curve, poor fit].

For the molecule `CN(C)C(CNC(=O)CCCN1C(=O)c2cccc3cccc(c23)C1=O)c1ccccc1` (configuration not stated), the cell number change is 20.7%. For the same molecule, the AC50 under setting [2] is 0.58 µM [rising, single point].

Regarding `CCCn1c(SCC(=O)N2c3ccccc3Sc3ccccc32)nc2c1c(=O)n(C)c(=O)n2C`, the cell number change amounted to 27.1%. Besides, under setting [2], the AC50 was 0.731 µM [rising, single point].

As to `C=CCOc1ccc(CNc2nn[nH]n2)cc1`, the cell number change is 1.53%. Moreover, under setting [2], the half-maximal activity concentration (AC50) is 3.26 µM [falling, single point].

With `CC(C)C(NS(=O)(=O)c1ccc2c(c1)C(C)(C)C(=O)N2C)C(=O)NCc1ccccc1Cl` (configuration not stated), the cell number change was found to be 2.99%. In addition, under setting [2], the AC50 was 0.82 µM [rising, full curve, poor fit].

Regarding `N#Cc1cc(-c2ccccc2)nnc1Sc1ccc(F)cc1`, the cell number change was found to be 41.2%. Under setting [1], the AC50 was 7.31 µM [rising, partial curve, poor fit]. Further, the AC50 under setting [2] was 6.51 µM [rising, single point].

Regarding `CCN(CC)S(=O)(=O)c1ccc(C)c(NC(=O)COC(=O)[C@@H]2CCCN2C(=O)c2cccs2)c1`, the cell number change was determined as 55.5%.

Regarding `COc1ccc(C2=CC(c3ccc(Cl)cc3)n3cnnc3N2)cc1OC` (configuration not stated), the cell number change was -32.6%. Also, under setting [1], the AC50 was 16.4 µM [falling, single point]. The AC50 under setting [2] was 29.1 µM [falling, single point].

As to `O=C(Nc1ccccc1N1CCN(c2ccc(F)cc2)CC1)C1CCCCC1`, the cell number change amounted to 31.2%. Also, under setting [1], the AC50 is 1.64 µM [rising, partial curve]. The AC50 under setting [2] is 2.06 µM [rising, partial curve].

As to `COc1ccc(CN2C(=NC(=O)C3CCCO3)SC3CS(=O)(=O)CC32)cc1OC` (configuration not stated), the cell number change was 33.7%. Under setting [1], the AC50 is 20.6 µM [rising, single point].

As to `O=C1CC(C2CCCO2)C(=O)N1c1ccc(Cl)c(Cl)c1` (configuration not stated), the cell number change was -40.4%. Besides, the AC50 under setting [1] was 14.6 µM [falling, single point]. Besides, under setting [2], the concentration at half-maximal activity (AC50) was 9.2 µM [falling, partial curve].
